According to PMC12599920:
Numbering of substitutions follows the chain as printed. These are yes or no findings as the source states them, for the method shown. A result given as binding can be weak or reduced; the word gives no strength. For some of these results: Tags and fused reporters may be left off the sequences shown.

Tests used:
Assay in all cases: pull-down; MBP-fused aldolase protein held on amylose agarose; soluble Mud^CC prey added at varying concentrations for 2 h at 4°C in 20 mM Tris pH 8, 100 mM NaCl, 1 mM DTT, 0.2% Triton-X100; four washes; Coomassie-stained SDS-PAGE, band intensities fitted to a one-site binding isotherm; both purified
[1] = target: T1, MBP:Hts (110-310), CThelix truncation of the Hts aldolase domain (Drosophila melanogaster) (UniProt Q02645)
T1 sequence: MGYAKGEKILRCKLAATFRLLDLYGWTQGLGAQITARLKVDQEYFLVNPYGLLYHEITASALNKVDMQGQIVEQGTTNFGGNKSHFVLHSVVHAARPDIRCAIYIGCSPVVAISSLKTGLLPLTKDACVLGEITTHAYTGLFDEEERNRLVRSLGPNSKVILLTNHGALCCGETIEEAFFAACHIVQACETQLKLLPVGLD

[2] = target: T2, Hts310_HTaa (H164A/T167A) (Drosophila melanogaster) (UniProt Q02645)
T2 sequence: T1 sequence with H55A, T58A

[3] = target: T3, MBP:Hts (110-401), full-length Hts aldolase domain (Drosophila melanogaster) (UniProt Q02645)
T3 sequence: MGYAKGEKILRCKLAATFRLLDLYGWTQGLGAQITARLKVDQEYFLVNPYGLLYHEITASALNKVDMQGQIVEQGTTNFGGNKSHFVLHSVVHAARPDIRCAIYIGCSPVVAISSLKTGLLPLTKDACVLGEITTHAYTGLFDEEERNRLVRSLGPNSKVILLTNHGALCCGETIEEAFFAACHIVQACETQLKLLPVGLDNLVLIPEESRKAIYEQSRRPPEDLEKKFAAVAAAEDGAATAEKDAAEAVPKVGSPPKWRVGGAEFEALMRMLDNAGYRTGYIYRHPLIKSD

[4] = target: T4, MBP:Hts (110-401)-ΔCTloop (Drosophila melanogaster) (UniProt Q02645)
T4 sequence: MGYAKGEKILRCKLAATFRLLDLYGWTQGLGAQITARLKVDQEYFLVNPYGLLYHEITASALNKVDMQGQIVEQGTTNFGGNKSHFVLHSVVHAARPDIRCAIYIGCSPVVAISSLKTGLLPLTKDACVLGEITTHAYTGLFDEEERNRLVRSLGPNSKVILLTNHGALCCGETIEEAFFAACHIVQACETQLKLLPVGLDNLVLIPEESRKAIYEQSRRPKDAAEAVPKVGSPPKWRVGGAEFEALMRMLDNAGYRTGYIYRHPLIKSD

binding [1]: binds
binding [2]: binds
binding [3]: binds
binding [4]: binds
Substance: Mushroom body defect coiled-coil domain (Mud^CC) (Drosophila melanogaster) (domain or fragment)
